Reference: PubChem BioAssay AID248 (DTP/NCI, 2004)
The list shows only some results of the screen, not a fair sample: it is rich in T/C values a quarter to a half above the control, in often repeated tests (any T/C) and in doses without a T/C. Further doses and runs are listed elsewhere. T/C is the treated group as % of the vehicle group. Some entries give survivors of the animals treated and no T/C: the source holds a T/C of zero for them, seemingly a mark for toxic or unscored doses. Some survivor counts are full or nearly so, which does not show that the dose was tolerated: the source hardly ever lists a survival T/C far under the control, and the zero likely stands for such cases as well. Survivors were counted at the toxicity check, usually on the fifth day, unless a day is given; later deaths do not show. Schedules are NCI's codes, taken here to give the interval after Q, in days (D) or hours (H), and the number of doses after X. Some schedule codes hold Z or #, which are not explained here. Where survival is the endpoint, this PubChem deposit counts one and a half times the control or more as active, and values a quarter to a half above the control carry no call in these data; other NCI protocols may use other cut-offs. Some T/C values are followed by the survivors on the day toxicity was checked, most often the fifth; where none is given, no animal had died by that day.

Tested on: L1210 leukemia ip in BDF1 mice, survival T/C
Assay: NCI In Vivo Anticancer Drug Screen. Data for tumor model L1210 Leukemia (intraperitoneal) in B6D2F1 (BDF1) mice
Conditions: T/C endpoint: mean survival time, higher T/C = longer survival
[1] = dose: 200.0 mg/kg/injection, schedule: Q01DX001 (ip), vehicle: saline
[2] = dose: 200.0 mg/kg/injection, schedule: Q01DX009 (ip), vehicle: saline
[3] = dose: 100.0 mg/kg/injection, schedule: Q04DX003 (ip), vehicle: saline with Tween-80
[4] = dose: 200.0 mg/kg/injection, schedule: Q04DX003 (ip), vehicle: saline with Tween-80
[5] = dose: 400.0 mg/kg/injection, schedule: Q04DX003 (ip), vehicle: saline with Tween-80
[6] = dose: 400.0 mg/kg/injection, schedule: Q04DX003 (ip), vehicle: saline
[7] = dose: 200.0 mg/kg/injection, schedule: Q01DX001 (ip), vehicle: Klucel (hydroxypropylcellulose) (HPC)
[8] = dose: 400.0 mg/kg/injection, schedule: Q01DX001 (ip), vehicle: Klucel (hydroxypropylcellulose) (HPC)
[9] = dose: 200.0 mg/kg/injection, schedule: Q01DX009 (ip), vehicle: Klucel (hydroxypropylcellulose) (HPC)
[10] = dose: 400.0 mg/kg/injection, schedule: Q01DX009 (ip), vehicle: Klucel (hydroxypropylcellulose) (HPC)
[11] = dose: 200.0 mg/kg/injection, schedule: Q04DX003 (ip), vehicle: Klucel (hydroxypropylcellulose) (HPC)

Compound: CC1=NN(c2ccccc2)/C(=N/N=C(N)N)C1CC1C(C)=NN(c2ccccc2)/C1=N/N=C(N)N (stereo not drawn)
- survivor count (dose: 480.0 mg/kg/injection, schedule: Q01DX Z (ip), vehicle: carboxymethylcellulose (CMC)): 4 of 6

Compound: COc1cc(NC(=O)CN(CCCl)CCCl)cc(OC)c1OC
- T/C (dose: 30.0 mg/kg/injection, schedule: Q01DX009 (ip), vehicle: saline): 135 % of control
- T/C (dose: 45.0 mg/kg/injection, schedule: Q01DX009 (ip), vehicle: saline): 135 % of control
- T/C (dose: 66.0 mg/kg/injection, schedule: Q01DX009 (ip), vehicle: saline): 135 % of control
- T/C (dose: 88.8 mg/kg/injection, schedule: Q01DX001 (ip), vehicle: carboxymethylcellulose (CMC)): 140 % of control
- T/C (dose: 133.0 mg/kg/injection, schedule: Q01DX001 (ip), vehicle: saline): 127 % of control
- T/C (dose: 200.0 mg/kg/injection, schedule: Q01DX001 (ip), vehicle: carboxymethylcellulose (CMC)): 140 % of control
- T/C [1]: 132 % of control
- T/C (dose: 300.0 mg/kg/injection, schedule: Q01DX001 (ip), vehicle: carboxymethylcellulose (CMC)): 140 % of control
- T/C (dose: 300.0 mg/kg/injection, schedule: Q01DX001 (ip), vehicle: saline): 126 % of control

Compound: C#CCOCC(O)C[As](=O)(O)c1ccc(Cl)cc1 (stereo not drawn)
- survivor count (dose: 25.0 mg/kg/injection, schedule: Q01DX001 (ip), vehicle: saline with Tween-80): 0 of 6
- survivor count (dose: 100.0 mg/kg/injection, schedule: Q01DX001 (ip), vehicle: saline with Tween-80): 0 of 6
- survivor count (dose: 200.0 mg/kg/injection, schedule: Q01DX001 (ip), vehicle: saline with Tween-80): 0 of 6
- survivor count (dose: 400.0 mg/kg/injection, schedule: Q01DX001 (ip), vehicle: saline with Tween-80): 0 of 6

Compound: CC(=O)N/C(N)=N/N=C(C)/C=N\N
- survivor count (dose: 240.0 mg/kg/injection, schedule: Q01DX Z (oral), vehicle: carboxymethylcellulose (CMC)): 1 of 6
- survivor count (dose: 480.0 mg/kg/injection, schedule: Q01DX Z (oral), vehicle: carboxymethylcellulose (CMC)): 1 of 6
- survivor count (dose: 960.0 mg/kg/injection, schedule: Q01DX Z (oral), vehicle: carboxymethylcellulose (CMC)): 1 of 6

Compound: CC(N)c1ccccc1 (stereo not drawn) (tested in a mixture with another compound)
- survivor count [2]: 3 of 3

Compound: C[CH2][Ge]([Cl])([CH2]C)[CH2]C
- survivor count [3]: 1 of 6
- survivor count [4]: 0 of 6
- survivor count [5]: 0 of 6

Compound: O=C(/C=C/c1ccccc1)NC(=S)Nc1ncccn1
- survivor count (dose: 400.0 mg/kg/injection, schedule: Q04DX003 (ip), vehicle: carboxymethylcellulose (CMC)): 3 of 6

Compound: COc1n[n+]([O-])c([N+](=O)[O-])c(C)c1[N+](=O)[O-]
- survivor count (dose: 37.5 mg/kg/injection, schedule: Q04DX002 (ip), vehicle: Klucel (hydroxypropylcellulose) (HPC)): 0 of 3
- survivor count (dose: 75.0 mg/kg/injection, schedule: Q04DX002 (ip), vehicle: Klucel (hydroxypropylcellulose) (HPC)): 0 of 3
- survivor count (dose: 150.0 mg/kg/injection, schedule: Q04DX002 (ip), vehicle: Klucel (hydroxypropylcellulose) (HPC)): 0 of 3

Compound: CCOC(=O)c1c[n]([Hg][n]2cc(C(=O)OCC)c(Nc3ccccc3Cl)nc2=O)c(=O)nc1Nc1ccccc1Cl
- survivor count (dose: 25.0 mg/kg/injection, schedule: Q04DX003 (ip), vehicle: saline with Tween-80): 3 of 6
- survivor count (dose: 50.0 mg/kg/injection, schedule: Q04DX003 (ip), vehicle: saline with Tween-80): 0 of 6

Compound: CCN(C(=O)CCl)C(C)(C)C(SSSC(c1ccc(Cl)cc1)C(C)(C)N(CC)C(=O)CCl)c1ccc(Cl)cc1 (stereo not drawn)
- survivor count [6]: 0 of 6

Compound: O=C1NC(=O)C([n+]2ccccc2)=C1[O-]
- survivor count [6]: 0 of 3

Compound: O=S1(=O)CCCC1C(Cl)c1ccccc1 (stereo not drawn)
- survivor count [7]: 2 of 6
- survivor count [8]: 1 of 6

Compound: Cc1cc(C)c(F)[c]([Hg][Br])c1N
- survivor count (dose: 25.0 mg/kg/injection, schedule: Q01DX009 (ip), vehicle: Klucel (hydroxypropylcellulose) (HPC)): 0 of 3
- survivor count (dose: 50.0 mg/kg/injection, schedule: Q01DX009 (ip), vehicle: Klucel (hydroxypropylcellulose) (HPC)): 0 of 3
- survivor count (dose: 75.0 mg/kg/injection, schedule: Q01DX001 (ip), vehicle: Klucel (hydroxypropylcellulose) (HPC)): 0 of 6
- survivor count (dose: 150.0 mg/kg/injection, schedule: Q01DX001 (ip), vehicle: Klucel (hydroxypropylcellulose) (HPC)): 0 of 6
- survivor count [9]: 0 of 3

Compound: CNC(C)(C)C(SS)c1ccc(Cl)cc1 (stereo not drawn)
- survivor count [3]: 3 of 6
- survivor count [4]: 2 of 6
- survivor count [5]: 0 of 6

Compound: CC(=O)C(N=Nc1ccccc1)C(C)=O
- survivor count [9]: 0 of 6
- survivor count [10]: 0 of 6

Compound: O=C(O)C1CC1c1ccc(Br)cc1 (stereo not drawn)
- survivor count (dose: 400.0 mg/kg/injection, schedule: Q04DX002 (ip), vehicle: Klucel (hydroxypropylcellulose) (HPC)): 0 of 3

Compound: O=[N+]([O-])c1ccc(-n2nccn2)cc1
- survivor count (dose: 300.0 mg/kg/injection, schedule: Q01DX001 (ip), vehicle: other): 0 of 6

Compound: Cc1nnc(NC(=O)CCl)s1
- survivor count [9]: 4 of 6
- survivor count [10]: 0 of 6

Compound: Cc1ccc([N+](=O)[O-])c(OC(=O)Nc2ccc(Cl)c(Cl)c2)c1
- survivor count [11]: 6 of 6

Compound: C[n+]1c(O)c(C(=O)CCl)n2cc([N+](=O)[O-])ccc21
- survivor count (dose: 100.0 mg/kg/injection, schedule: Q01DX009 (ip), vehicle: acetone): 3 of 6
- survivor count (dose: 200.0 mg/kg/injection, schedule: Q01DX009 (ip), vehicle: acetone): 2 of 6
- survivor count (dose: 400.0 mg/kg/injection, schedule: Q01DX009 (ip), vehicle: acetone): 1 of 6

Compound: CN(C)CCCOS(C)(=O)=O
- survivor count (dose: 400.0 mg/kg/injection, schedule: Q04DX002 (ip), vehicle: saline with Tween-80): 1 of 3

Compound: CN(C)N=Nc1ccccc1[N+](=O)[O-]
- T/C (dose: 25.0 mg/kg/injection, schedule: Q01DX009 (ip), vehicle: saline): 130 % of control
- T/C (dose: 50.0 mg/kg/injection, schedule: Q01DX009 (ip), vehicle: saline): 136 % of control
- T/C (dose: 79.0 mg/kg/injection, schedule: Q01DX009 (ip), vehicle: saline with Tween-80): 135 % of control
- survivor count (dose: 100.0 mg/kg/injection, schedule: Q01DX009 (ip), vehicle: saline): 6 of 6
- T/C (dose: 119.0 mg/kg/injection, schedule: Q01DX009 (ip), vehicle: saline with Tween-80): 147 % of control [5 of 6 alive]
- T/C [1]: 134 % of control
- survivor count [2]: 1 of 6
- T/C (dose: 400.0 mg/kg/injection, schedule: Q01DX001 (ip), vehicle: saline): 128 % of control

Compound: CCCCNC(=O)C1CC2c3cc(Br)cc4[nH]c(Br)c(c34)CC2N(C)C1 (stereo not drawn)
- survivor count (dose: 50.0 mg/kg/injection, schedule: Q04DX003 (ip), vehicle: Klucel (hydroxypropylcellulose) (HPC)): 4 of 4
- survivor count [11]: 4 of 4

Compound: CC(=O)NC(C)CC(C)C (stereo not drawn)
- survivor count [6]: 0 of 6

Compound: CNC(C)c1ccc(C)cc1 (stereo not drawn)
- survivor count [3]: 3 of 6
- survivor count [4]: 0 of 6
- survivor count [5]: 0 of 6

Compound: Oc1ccc2ccccc2c1N=Nc1ccc(Cl)cc1
- survivor count (dose: 400.0 mg/kg/injection, schedule: Q01DX009 (ip), vehicle: carboxymethylcellulose (CMC)): 6 of 6

Compound: Cn1[nH]nnc1=S
- survivor count [5]: 0 of 4

Compound: CSc1nc([N+](C)(C)C)cc([N+](C)(C)C)n1
- survivor count (dose: 12.0 mg/kg/injection, schedule: Q01DX Z (ip), vehicle: saline): 3 of 6
- survivor count (dose: 25.0 mg/kg/injection, schedule: Q01DX Z (ip), vehicle: saline): 0 of 6
- survivor count (dose: 50.0 mg/kg/injection, schedule: Q01DX Z (ip), vehicle: saline): 0 of 6

Compound: Nc1nc(N)nc(CBr)n1
- survivor count (dose: 25.0 mg/kg/injection, schedule: Q01DX001 (ip), vehicle: Klucel (hydroxypropylcellulose) (HPC)): 0 of 3
- survivor count (dose: 100.0 mg/kg/injection, schedule: Q01DX001 (ip), vehicle: Klucel (hydroxypropylcellulose) (HPC)): 2 of 3
- survivor count [7]: 2 of 3
- survivor count [8]: 0 of 3
